# According to PubChem BioAssay AID504834 (National Center for Advancing Translational Sciences (NCATS), 2011):
# “And” between values parts separate entries of the source, which are not always exact repeats. Identical values can stand only once. About 22,000 (6.9%) of roughly 320,000 compounds were called active. The inconclusive results got no clear call from the source; some entries with a clear call stand among them for comparison. Calls follow the shape of the dose curve; as a rule, active = well fitted inhibition curve with a large enough effect; inconclusive = small, poorly fitted or top-dose-only effect, or another doubt; inactive = no such curve, though single readings can be large or run the other way. A potency beside an inconclusive call is a rough fit, not a confirmed value.
# Experiment: Primary qHTS for delayed death inhibitors of the malarial parasite plastid, 96 hour incubation
# Conditions: P. falciparum luciferase reporter growth; series mostly up to 28.7 µM
# Summary of the method: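 Erythrocytes infected with luciferase-expressing P. falciparum were dispensed at 2% hematocrit and 0.05% parasitemia (final), then incubated with compounds 96 hours at 37 C in 5% CO2. Luminescence after detection reagent addition reported growth.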
# Potency is read from the fitted curve at half-maximal effect.
row,Structure (SMILES),Potency
1,CCCn1cc(S(=O)(=O)CC(=O)NC2CCCCC2)c2ccccc21,"inconclusive: 18.5 µM [inhibitor, single point]"
2,CCC(CC)c1nnc(NC(=O)CN2C(=O)c3ccccc3C2=O)s1,"inconclusive: 18.5 µM [inhibitor, single point]"
3,Cc1cccc(CC(C)NC(=O)CCc2nnc(-c3ccccc3)o2)n1 (centres undefined),"inconclusive: 14.7 µM [inhibitor, single point]"
4,COc1ccc2c(c1)[nH]c1c(=O)n(CC3CCCO3)cnc12 (centres undefined),inactive
5,CCOC(=O)c1oc2c(CN3CCN(C)CC3)c(O)ccc2c(=O)c1-c1ccccc1OC,active: 9.28 µM
6,Cc1c(NC(=S)Nc2ccc(Cl)cc2)c(=O)n(-c2ccccc2)n1C,inactive
7,COc1ccc(CCNC(=O)CCc2nnc(Cc3ccc4c(c3)OCO4)o2)c(OC)c1,inactive
8,O=C(c1cnc(N2CCN(c3ncccn3)CC2)c2ccccc12)N1CCN(c2ccccn2)CC1,"inconclusive: 0.0738 µM [inhibitor, full curve, poor fit]"
9,Cc1ccc(C)c(C(=O)COc2ccccc2[N+](=O)[O-])c1,inactive
10,COc1ccccc1NC(=O)CC(c1ccc(F)cc1)c1ccco1 (centres undefined),inactive
11,CN1C(=O)/C(=C\c2ccccc2OCc2ccccc2)SC1=S,"inconclusive: 8.28 µM [inhibitor, partial curve, poor fit]"
12,COCCCNc1nc(N)c([N+](=O)[O-])c(NCc2ccccc2)n1,"inconclusive: 5.22 µM [inhibitor, partial curve, poor fit]"
13,CC1CC(=O)N(CC(=O)Nc2ccc3c(c2)OCO3)c2ccccc2S1 (centres undefined),"inconclusive: 2.08 µM [inhibitor, full curve, poor fit]"
14,Cc1nccn1Cc1ccc(Cl)nc1,"inconclusive: 11.7 µM [inhibitor, partial curve, poor fit]"
15,CCn1c(SCCC(C)C)nnc1-c1c[nH]c2ccccc12,"inconclusive: 4.65 µM [inhibitor, partial curve, poor fit]"
16,N#Cc1ccsc1NC(=O)COc1ccc(-c2nnco2)cc1,"inconclusive: 18.5 µM [inhibitor, single point]"
17,CCCCN1C(=O)C(=O)N(CC(=O)c2cc(C)n(C3CC3)c2C)C1=O,inactive
18,COC(=O)c1ccc(NC(=O)c2ccc3c(c2)OCO3)cc1,active: 14.7 µM
19,CN(Cc1ccon1)C(=O)CC1C(=O)NCCN1Cc1ccccc1C(F)(F)F (centres undefined),"inconclusive: 0.0928 µM [inhibitor, full curve, poor fit]"
20,Cc1ccc2nc3sc(C(=O)N4CCCc5ccccc54)c(N)c3cc2c1,"inconclusive: 0.522 µM [inhibitor, full curve, poor fit]"
21,Cc1cc(C)cc(NC(=S)NCC2CCCO2)c1 (centres undefined),"inconclusive: 4.15 µM [inhibitor, partial curve]"
22,COc1ccc2[nH]c(=O)c(C(c3nnnn3C(C)(C)C)N(Cc3ccco3)CC3CCCO3)cc2c1 (centres undefined),active: 5.86 µM

row,Structure (SMILES),Potency
1,CCCCn1c(N)c(N(CC(C)C)C(=O)c2ccc3c(c2)NC(=O)C(C)S3)c(=O)[nH]c1=O (centres undefined),inactive
2,CCOC(=O)c1cncc(C#CCOC(=O)Nc2ccc(OC(F)(F)F)cc2)c1,"inconclusive: 0.0928 µM [inhibitor, full curve]"
3,CCCc1ccc(OCC(=O)NNC(=O)c2cccnc2)cc1,"inconclusive: 20.8 µM [inhibitor, partial curve, poor fit]"
4,O=C(CC1Nc2ccccc2NC1=O)NC1CCCCC1 (centres undefined),"inconclusive: 0.415 µM [inhibitor, full curve, poor fit]"
5,O=C(Nc1nnc(-c2cccnc2)o1)c1cccc([N+](=O)[O-])c1,"inconclusive: 18.5 µM [inhibitor, single point]"
6,Cc1ccc(NC(=O)c2oc(=O)c3ccccc3c2-c2ccccc2)c(C)c1,"inconclusive: 0.037 µM [inhibitor, full curve, poor fit]"
7,COc1cc(C(=O)Nc2ccc3ccccc3c2)cc(OC)c1OC,active: 1.65 µM
8,O=C(O)c1[nH]c2ccccc2c1CC(=O)N1CCOCC1,"inconclusive: 1.47 µM [inhibitor, full curve, poor fit]"
9,O=C(Nc1sc2c(c1C(=O)O)CCCC2)C(=O)N1CCOCC1,inactive
10,CCOC(=O)N1CCc2c(sc3c2c(=O)n(Cc2ccccc2)c(=O)n3CC(=O)NCCOC)C1,"inconclusive: 14.7 µM [inhibitor, single point]"
11,O=C(CCNC(=O)OCc1ccccc1)NC1CCCCC1,active: 3.7 µM
12,COc1ccc(C(=O)C(C)N(C(=O)c2ccc(Cl)cc2Cl)N2C(=O)C3C4C=CC(C4)C3C2=O)cc1 (centres undefined),"inconclusive: 8.28 µM [inhibitor, partial curve]"
13,CC(=O)O[C@]1(C(C)=O)CC[C@H]2[C@@H]3C=C(Cl)C4=CC(=O)CC[C@]4(C)[C@H]3CC[C@@]21C,"inconclusive: 19 µM [inhibitor, single point] and inconclusive: 16.5 µM [inhibitor, single point]"
14,COc1ccc2cc3c(N)nn(C(=O)c4ccccc4Cl)c3nc2c1,"inconclusive: 13.1 µM [inhibitor, single point]"
15,CC(=O)Nc1ccc(NC(=O)Nc2ccc(C)c(C)c2)cc1,inactive
16,O=C1CC(NCCc2ccccc2)C(=O)N1CCc1ccccc1 (centres undefined),inactive
17,CCOC(=O)c1c(C)[nH]c(C(=O)/C(C#N)=C/c2ccc(OC(F)F)c(OC)c2)c1C,"inconclusive: 18.5 µM [inhibitor, single point]"
18,O=C(c1ccccc1)c1c2c(cc3sc4ccccc4[n+]13)-c1cccc3cccc-2c13,active: 0.465 µM
19,Cc1cc(C(F)F)n2nc(C(=O)NCc3ccccc3F)nc2n1,inactive
20,Oc1ccccc1CNCC12CC3CC(CC(C3)C1)C2,active: 0.0828 µM
21,COc1cccc(N(C(=O)c2cnccn2)C(C(=O)NC2CCCCC2)c2ccc(Cl)cc2)c1 (centres undefined),"inconclusive: 1.47 µM [inhibitor, full curve, poor fit]"
22,O=C(COc1ccc(Cl)cc1)N(c1ccc(Cl)cc1)C1CN2CCC1CC2 (centres undefined),"inconclusive: 10.4 µM [inhibitor, partial curve]"
